Assay [1] has as its target Exo70 wild type, HA-tagged and Flag-tagged copies co-expressed (rat) (UniProt O54922). The assay can be described thus: co-IP; 293T cells co-transfected with HA-tagged and Flag-tagged Exo70 (wild type or mutant), in the presence or absence of Myc-ULK1.
The target in assay [2] is Exo70(S47A), HA-tagged and Flag-tagged copies co-expressed (rat) (UniProt O54922). Described as above.
The target of assay [3] is Exo70(S47D/S89D), HA-tagged and Flag-tagged copies co-expressed (rat) (UniProt O54922). The description is as above.
In assay [4] the target is Exo70(S59A), HA-tagged and Flag-tagged copies co-expressed (rat) (UniProt O54922). The description is as above.
Assay [5] has as its target Exo70(S59D/S89D), HA-tagged and Flag-tagged copies co-expressed (rat) (UniProt O54922). Described as above.
The target in assay [6] is Exo70(S89A), HA-tagged and Flag-tagged copies co-expressed (rat) (UniProt O54922). The assay is described as above.
The target of assay [7] is Exo70(S89D), HA-tagged and Flag-tagged copies co-expressed (rat) (UniProt O54922). The description is as above.
In assay [8] the target is Exo70-3A (S47A/S59A/S89A), HA-tagged and Flag-tagged copies co-expressed (rat) (UniProt O54922). Described as above.
Assay [9] addresses Exo70-3D (S47D/S59D/S89D), HA-tagged and Flag-tagged copies co-expressed (rat) (UniProt O54922). The assay is described as above.
In assay [10] the target is Exo70-Flag (rat) (UniProt O54922). The assay can be described thus: co-IP; 293T cells transfected with Exo70-Flag or Exo70(3D)-Flag together with HA-Sec6, HA-Sec8 or HA-Exo84.

Amino acid sequences for entries named in this document (tags omitted). A change or cut given only in a name is not applied to a line headed by its entry.
UniProt O54922: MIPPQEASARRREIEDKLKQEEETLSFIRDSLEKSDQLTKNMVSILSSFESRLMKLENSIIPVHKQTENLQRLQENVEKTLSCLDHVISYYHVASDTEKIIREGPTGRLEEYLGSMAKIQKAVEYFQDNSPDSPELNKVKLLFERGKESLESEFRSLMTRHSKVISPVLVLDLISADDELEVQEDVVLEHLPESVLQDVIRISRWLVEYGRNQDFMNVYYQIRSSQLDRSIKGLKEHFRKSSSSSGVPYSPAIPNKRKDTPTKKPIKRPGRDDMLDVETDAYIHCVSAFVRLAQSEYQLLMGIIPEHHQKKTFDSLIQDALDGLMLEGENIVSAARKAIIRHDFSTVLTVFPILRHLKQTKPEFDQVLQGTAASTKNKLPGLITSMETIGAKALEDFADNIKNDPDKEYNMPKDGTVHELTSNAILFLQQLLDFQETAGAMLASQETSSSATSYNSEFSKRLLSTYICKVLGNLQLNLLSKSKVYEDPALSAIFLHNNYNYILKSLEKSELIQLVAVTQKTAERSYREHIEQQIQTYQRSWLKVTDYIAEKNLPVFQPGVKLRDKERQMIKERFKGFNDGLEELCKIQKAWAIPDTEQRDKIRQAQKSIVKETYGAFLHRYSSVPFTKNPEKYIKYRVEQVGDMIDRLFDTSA
UniProt O54924: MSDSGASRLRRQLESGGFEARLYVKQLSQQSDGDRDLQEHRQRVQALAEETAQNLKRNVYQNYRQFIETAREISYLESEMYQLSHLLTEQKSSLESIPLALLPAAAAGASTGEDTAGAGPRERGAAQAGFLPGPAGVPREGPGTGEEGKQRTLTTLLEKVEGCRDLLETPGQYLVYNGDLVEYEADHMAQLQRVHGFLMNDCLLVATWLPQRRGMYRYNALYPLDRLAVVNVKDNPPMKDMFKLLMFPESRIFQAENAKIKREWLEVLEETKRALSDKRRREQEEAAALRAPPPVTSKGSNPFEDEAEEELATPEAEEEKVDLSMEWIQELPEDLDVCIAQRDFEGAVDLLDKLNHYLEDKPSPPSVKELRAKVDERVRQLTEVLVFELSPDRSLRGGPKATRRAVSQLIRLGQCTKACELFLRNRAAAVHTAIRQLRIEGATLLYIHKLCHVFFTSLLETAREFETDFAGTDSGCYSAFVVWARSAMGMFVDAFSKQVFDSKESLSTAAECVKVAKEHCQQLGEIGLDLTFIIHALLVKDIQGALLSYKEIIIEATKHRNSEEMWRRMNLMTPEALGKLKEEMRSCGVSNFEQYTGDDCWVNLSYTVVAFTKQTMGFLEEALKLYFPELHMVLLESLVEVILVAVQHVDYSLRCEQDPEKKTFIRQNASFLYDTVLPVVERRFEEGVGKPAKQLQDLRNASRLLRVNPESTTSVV
UniProt Q62825: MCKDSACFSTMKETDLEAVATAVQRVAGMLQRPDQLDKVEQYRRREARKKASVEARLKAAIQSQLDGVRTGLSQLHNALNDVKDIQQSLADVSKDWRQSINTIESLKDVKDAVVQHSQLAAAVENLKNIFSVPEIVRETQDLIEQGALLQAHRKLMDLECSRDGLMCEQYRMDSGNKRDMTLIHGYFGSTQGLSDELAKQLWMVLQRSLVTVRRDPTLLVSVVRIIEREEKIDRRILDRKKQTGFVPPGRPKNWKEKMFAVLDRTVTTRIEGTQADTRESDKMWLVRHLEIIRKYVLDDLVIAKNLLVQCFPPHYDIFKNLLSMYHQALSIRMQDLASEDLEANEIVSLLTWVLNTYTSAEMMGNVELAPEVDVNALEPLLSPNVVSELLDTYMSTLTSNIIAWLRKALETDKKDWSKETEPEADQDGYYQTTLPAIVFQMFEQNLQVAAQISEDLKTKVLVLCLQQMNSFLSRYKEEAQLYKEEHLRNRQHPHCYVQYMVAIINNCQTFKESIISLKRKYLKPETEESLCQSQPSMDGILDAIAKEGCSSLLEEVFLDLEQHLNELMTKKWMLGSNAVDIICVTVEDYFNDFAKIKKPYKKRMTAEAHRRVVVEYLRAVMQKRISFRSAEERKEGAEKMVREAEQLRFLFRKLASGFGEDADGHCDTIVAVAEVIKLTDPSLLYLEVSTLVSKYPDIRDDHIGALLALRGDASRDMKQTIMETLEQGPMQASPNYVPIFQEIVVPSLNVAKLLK
UniProt Q62824: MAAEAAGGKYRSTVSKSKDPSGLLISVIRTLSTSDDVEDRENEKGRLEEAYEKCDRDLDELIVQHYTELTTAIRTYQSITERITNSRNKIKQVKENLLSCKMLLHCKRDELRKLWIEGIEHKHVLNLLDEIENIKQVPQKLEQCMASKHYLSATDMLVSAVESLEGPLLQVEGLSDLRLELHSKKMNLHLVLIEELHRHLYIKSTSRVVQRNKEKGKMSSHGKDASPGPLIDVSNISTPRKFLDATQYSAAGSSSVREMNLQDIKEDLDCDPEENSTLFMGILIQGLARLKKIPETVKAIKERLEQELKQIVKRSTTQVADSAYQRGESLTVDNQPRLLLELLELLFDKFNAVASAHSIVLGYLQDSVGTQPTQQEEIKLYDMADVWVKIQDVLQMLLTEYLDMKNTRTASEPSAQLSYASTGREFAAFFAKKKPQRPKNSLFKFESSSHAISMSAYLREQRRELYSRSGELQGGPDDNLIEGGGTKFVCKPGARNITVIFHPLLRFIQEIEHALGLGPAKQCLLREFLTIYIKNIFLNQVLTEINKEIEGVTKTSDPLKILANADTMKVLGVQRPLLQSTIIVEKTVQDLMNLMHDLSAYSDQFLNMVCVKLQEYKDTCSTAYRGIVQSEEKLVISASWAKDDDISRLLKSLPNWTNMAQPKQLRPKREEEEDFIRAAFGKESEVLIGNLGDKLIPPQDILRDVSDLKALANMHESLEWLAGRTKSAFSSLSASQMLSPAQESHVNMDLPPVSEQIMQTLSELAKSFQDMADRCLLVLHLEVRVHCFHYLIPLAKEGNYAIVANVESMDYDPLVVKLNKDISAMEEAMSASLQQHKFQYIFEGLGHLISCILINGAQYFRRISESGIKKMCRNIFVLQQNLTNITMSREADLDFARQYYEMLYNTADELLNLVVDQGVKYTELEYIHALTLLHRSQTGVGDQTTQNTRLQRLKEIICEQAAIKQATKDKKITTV

Data on twelve substances can be found in paper PMC6949295 (2020).

Results are given in words; binding and its absence hold for the method and conditions named. In cells and extracts the contact can be indirect. Some results given as binding are weak or reduced against the parent protein; the word gives no strength.

As for “Exo70 wild type, HA-tagged and Flag-tagged copies co-expressed (from UniProt O54922 1-653)”, the binding entry in assay [1] is listed as “binds”.
In the case of “Exo70(S47A), HA-tagged and Flag-tagged copies co-expressed (from UniProt O54922 1-653)”, the binding result in assay [2] is given as “binds”.
Regarding “Exo70(S47D/S89D), HA-tagged and Flag-tagged copies co-expressed (from UniProt O54922 1-653)”, in assay [3], the binding result was “binds”.
In the case of “Exo70(S59A), HA-tagged and Flag-tagged copies co-expressed (from UniProt O54922 1-653)”, the binding result in assay [4] is “binds”.
In the case of “Exo70(S59D/S89D), HA-tagged and Flag-tagged copies co-expressed (from UniProt O54922 1-653)”, the binding result in assay [5] is “binds”.
Take “Exo70(S89A), HA-tagged and Flag-tagged copies co-expressed (from UniProt O54922 1-653)”: in [6], the binding result is on record as “binds”.
As to “Exo70(S89D), HA-tagged and Flag-tagged copies co-expressed (from UniProt O54922 1-653)”, the binding result in assay [7] was “binds”.
Regarding “Exo70-3A (S47A/S59A/S89A), HA-tagged and Flag-tagged copies co-expressed (from UniProt O54922 1-653)”, the binding result in [8] was “binds”.
“Exo70-3D (S47D/S59D/S89D), HA-tagged and Flag-tagged copies co-expressed (from UniProt O54922 1-653)”: the binding entry in [9] is given as “binds weakly”.
In the case of HA-Exo84 (from UniProt O54924 1-716), the binding entry in assay [10] is listed as “binds”.
For HA-Sec6 (from UniProt Q62825 1-755), the binding result in assay [10] is given as “binds”.
The same measure, in the same setting: as for HA-Sec8 (from UniProt Q62824 1-975), the entry is “binds”.
